## Results from one PubChem assay

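Human neuroblastoma cells release a Gaussia luciferase reporter when ER calcium drops after thapsigargin, and that light output is measured (one 4-hour incubation is noted).
Compounds were run as a dilution series spanning about 2.6e-05 to 200 µM, mostly topping out at 38.4 µM.
The number is the fitted AC50 for inhibition of the reporter signal; a lower value means a more potent compound.
Calls come from curve class and activity score: actives score 40 to 100, inconclusives 1 to 39, and inactives (curve class 4) score 0.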

Values are in µM.
Every entry below has the call inconclusive.
These entries are mostly ones the record files as inconclusive; other results of the assay are not listed here.
A potency from a partial, single-point or poor curve is only a rough figure.
Some entries filed as inconclusive have a full curve.
Activity scores are not listed here.

| Compound | fitted potency (µM) | remark |
|---|---|---|
| `N#C/C(=C\c1ccc(O)c(O)c1)C(=O)NCCCCc1ccccc1` | 31.62 | inhibitor, partial curve, poor fit |
| `O=C(Nc1cccc(F)c1)N1CCC2(CC1)CCN(C(=O)c1cc(C(F)(F)F)cc(C(F)(F)F)c1)CC2` | 28.18 | inhibitor, single point |
| `COc1ccc(-n2c(=O)c(C)nc3cnc(Nc4cccc(OC)c4)nc32)cc1` | 8.912 | inhibitor, single point |
| `COc1ccc(Nc2ncnc3ccc(OC)cc23)cc1` | 28.18 | inhibitor, single point |
| `CN(C)C/C=C(/c1ccc(Br)cc1)c1cccnc1` | 31.62 | inhibitor, partial curve, poor fit |
| `O=C(Nc1ccccc1)c1cc([N+](=O)[O-])ccc1Cl` | 3.548 | inhibitor, full curve, poor fit |
| `COc1ccc(NC(=O)N2CCCC3(CCN(C(=O)c4cc(C(F)(F)F)cc(C(F)(F)F)c4)CC3)C2)cc1` | 31.62 | inhibitor, single point |
| `CC(C)(N)Cc1ccc(Cl)cc1` | 35.48 | inhibitor, partial curve, poor fit |
| `CN1C2CCC1CC(OC(c1ccccc1)c1ccccc1)C2` (stereo not drawn) | 12.59 | inhibitor, partial curve, poor fit |
| `Cc1[nH]c(=O)c(C#N)cc1-c1ccncc1` | 22.39 | inhibitor, partial curve, poor fit |
| `Nc1nc2ncc(CNc3ccc(C(=O)N[C@@H](CCC(=O)O)C(=O)O)cc3)nc2c(=O)[nH]1` | 6.31 | inhibitor, partial curve, poor fit |
| `COC(=O)C1=C(C)NC(C)=C(C(=O)OCCCN2CCC(c3ccccc3)(c3ccccc3)CC2)C1c1cccc([N+](=O)[O-])c1` (stereo not drawn) | 8.912 | inhibitor, partial curve, poor fit |
| `Cc1[nH]c(=O)c(C#N)cc1-c1ccc2nccn2c1` | 31.62 | inhibitor, partial curve, poor fit |
| `CSc1ccc2c(c1)[C@H](N1CCN(C)CC1)Cc1ccccc1S2` | 5.012 | inhibitor, partial curve, poor fit |
| `COCCn1c(=O)c(CCc2ccccc2)nc2cnc(N3CCNCC3)nc21` | 10 | inhibitor, partial curve, poor fit |
| `COCCn1c(=O)c(-c2ccc(F)cc2)nc2cnc(Oc3ccc(OC)cc3)nc21` | 25.12 | inhibitor, single point |
| `CCC(C)(C)N=C(NC#N)Nc1cccnc1` | 35.48 | inhibitor, full curve |
| `NC(=NCc1ccc(Cl)cc1)SCCCc1cnc[nH]1` | 28.18 | inhibitor, single point |
| `O=c1cnc2cnc(Oc3ccccc3)nc2n1Cc1ccc(F)cc1` | 28.18 | inhibitor, single point |
| `CC1CC(OC(=O)C(O)c2ccccc2)CC(C)(C)N1C` (stereo not drawn) | 2.239 | inhibitor, full curve, poor fit |
| `COc1ccccc1N1CCN(CCCCNS(=O)(=O)c2cccc3c(N(C)C)cccc23)CC1` | 22.39 | inhibitor, single point |
| `CC(=O)N1CCN(C)CC1` | 2.239 | inhibitor, full curve, poor fit |
| `O[C@H]1CCCC[C@H]1N1CCC(c2ccccc2)CC1` | 4.467 | inhibitor, partial curve, poor fit |
| `COCCn1c(=O)c(-c2ccccc2)nc2cnc(Oc3ccc(OC)cc3)nc21` | 31.62 | inhibitor, partial curve, poor fit |
| `COc1ccc(/C=C/C(=O)Nc2ccccc2C(=O)O)cc1OC` | 11.22 | inhibitor, partial curve, poor fit |
| `Oc1cc2c(cc1O)[C@H]1c3ccccc3CN[C@H]1CC2` | 14.13 | inhibitor, single point |
| `Cc1nc(N=Nc2ccc(S(=O)(=O)O)cc2S(=O)(=O)O)c(COP(=O)(O)O)c(C=O)c1O` | 31.62 | inhibitor, partial curve, poor fit |
| `NC(=O)COc1c(F)cc(SCCNS(=O)(=O)c2ccccc2)cc1F` | 31.62 | inhibitor, partial curve, poor fit |
| `CC(C)NC(=O)N1CCC2(CCNCC2)CC1` | 31.62 | inhibitor, partial curve, poor fit |
| `NC(=O)C1=CN(C2OC(COP(=O)(O)OP(=O)(O)OC[C@H]3O[C@@H](n4cnc5c(N)ncnc54)[C@H](OP(=O)(O)O)[C@@H]3O)C(O)C2O)C=CC1` (stereo partly drawn) | 10 | inhibitor, partial curve, poor fit |
| `N[C@@H](Cn1cc(I)c(=O)n(Cc2ccc(C(=O)O)cc2)c1=O)C(=O)O` | 28.18 | inhibitor, partial curve, poor fit |
| `CNCCc1ccc(O)c(O)c1` | 6.31 | inhibitor, partial curve, poor fit |
| `CNc1nc(-c2ccccc2OC)nc2ccccc12` | 28.18 | inhibitor, single point |
| `N#CCCn1c(=O)c(-c2cc(F)cc(F)c2)nc2cnc(Oc3cccc(Cl)c3)nc21` | 12.59 | inhibitor, single point |

Once more, the final 4:

Compound,fitted potency (µM),remark
N[C@@H](Cn1cc(I)c(=O)n(Cc2ccc(C(=O)O)cc2)c1=O)C(=O)O,28.18,"inhibitor, partial curve, poor fit"
CNCCc1ccc(O)c(O)c1,6.31,"inhibitor, partial curve, poor fit"
CNc1nc(-c2ccccc2OC)nc2ccccc12,28.18,"inhibitor, single point"
N#CCCn1c(=O)c(-c2cc(F)cc(F)c2)nc2cnc(Oc3cccc(Cl)c3)nc21,12.59,"inhibitor, single point"

From PubChem BioAssay record AID1508630 (NCATS, 2021).